{"source": "patent US9700578B2", "about": "“Use of nitrite salts for the treatment of cardiovascular conditions” (The United States of America as represented by the …, priority 2003, dated 2017)", "tested_on": "hypoxic-induced pulmonary hypertension"}
{"smiles": "O=NO", "note": "[sodium nitrite]", "values": [{"measurement": "exhaled NO after nitrite nebulization", "setting": "hypoxia, before 3±1", "result": "15±4", "unit": "ppb"}, {"measurement": "iron-nitrosyl-hemoglobin (chemiluminescence and EPR)", "setting": "nitrite inhalation during hypoxia", "result": "markedly increased"}]}
